Experimental data: publication PMC10711657
Residue numbers refer to the chain shown, from its start. These are yes or no findings as the source states them, for the method shown. In cells and extracts the contact can be indirect. A yes stands for co-enrichment or nearness to the bait. Other partners may have been found. Blank lines part the entries; values can stand above or below the binder they belong to.

The chains behind the UniProt entries cited, without tags or fusion partners.
UniProt Q08509: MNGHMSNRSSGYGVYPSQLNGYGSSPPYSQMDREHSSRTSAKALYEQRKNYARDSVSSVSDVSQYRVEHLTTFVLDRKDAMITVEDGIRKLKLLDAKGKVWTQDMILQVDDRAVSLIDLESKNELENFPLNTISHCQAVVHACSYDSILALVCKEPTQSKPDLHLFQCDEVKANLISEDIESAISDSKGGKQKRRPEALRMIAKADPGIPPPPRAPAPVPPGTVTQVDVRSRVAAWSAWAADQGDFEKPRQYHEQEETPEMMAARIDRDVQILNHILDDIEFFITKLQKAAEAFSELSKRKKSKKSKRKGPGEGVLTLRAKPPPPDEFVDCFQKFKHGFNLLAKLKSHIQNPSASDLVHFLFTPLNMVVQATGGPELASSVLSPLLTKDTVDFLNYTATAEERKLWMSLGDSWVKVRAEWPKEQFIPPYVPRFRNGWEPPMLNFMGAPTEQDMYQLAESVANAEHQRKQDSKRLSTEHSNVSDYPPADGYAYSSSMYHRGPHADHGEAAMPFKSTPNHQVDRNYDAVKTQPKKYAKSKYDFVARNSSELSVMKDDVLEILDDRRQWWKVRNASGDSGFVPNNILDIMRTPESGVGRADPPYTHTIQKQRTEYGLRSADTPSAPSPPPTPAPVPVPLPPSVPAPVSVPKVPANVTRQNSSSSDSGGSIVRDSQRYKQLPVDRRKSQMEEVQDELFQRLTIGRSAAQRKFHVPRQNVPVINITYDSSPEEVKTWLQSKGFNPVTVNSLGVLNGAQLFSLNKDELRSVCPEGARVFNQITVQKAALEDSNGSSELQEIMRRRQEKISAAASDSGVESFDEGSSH
UniProt Q3THE2: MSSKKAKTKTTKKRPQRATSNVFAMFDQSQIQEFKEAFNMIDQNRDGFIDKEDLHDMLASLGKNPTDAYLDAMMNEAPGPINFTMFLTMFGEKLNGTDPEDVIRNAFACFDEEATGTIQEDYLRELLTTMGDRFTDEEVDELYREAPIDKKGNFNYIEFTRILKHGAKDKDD

Biological target: GFP‐Eps8‐wild type (WT) (mouse (primer names: mEps8)) (UniProt Q08509)
Assay: affinity purification with mass spectrometry; whole-cell GFP-trap pull-down of GFP-Eps8-WT bait from transfected CAD cells treated with DMSO or 50 μM CK-666 for 1 h; on-bead digestion, LC-MS/MS; hits against cytosolic GFP-expressing cells; three preparations

binding: binds
B1: coronin 2b (Coro2b) (protein, UniProt Q8BH44 1-480)
chain: MTVTKMSWRPQYRSSKFRNVYGKAANREHCFDGIPITKNVHDNHFCAVNARFLAIVTESAGGGSFLVIPLEQTGRIEPNYPKVCGHQGNVLDIKWNPFIDNIIASCSEDTSVRIWEIPDGGLKRNMTEALLELHGHSRRVGLVEWHPTTNNILFSAGYDYKVLIWNLDIGEPVKMIDCHTDVILCMSFNTDGSLLTTTCKDKKLRVIEPRSGRVLQEANCKNHRVNRVVFLGNMKRLLTTGVSRWNTRQIALWDQEDLSMPMIEEEIDGLSGLLFPFYDADTHMLYLAGKGDGNIRYYEISTEKPYLSYLMEFRSPAPQKGLGVMPKHGLDVSACEVFRFYKLVTLKGLIEPISMIVPRRSDSYQEDIYPMTPGTEPALTPDEWLGGINRDPVLMSLKEGYKKSSKVVFKAPIREKKSVVVNGIDLLENVPPRTENELLRMFFRQQDEIRRLKEELAQKDIRLRQLQLELKNLRNNPKNC

binding: binds
B2: Myl12a (protein, UniProt Q6ZWQ9 1-172)
chain: MSSKRAKTKTTKKRPQRATSNVFAMFDQSQIQEFKEAFNMIDQNRDGFIDKEDLHDMLASMGKNPTDEYLDAMMNEAPGPINFTMFLTMFGEKLNGTDPEDVIRNAFACFDEEAIGTIQEDYLRELLTTMGDRFTDEEVDELYREAPIDKKGNFNYIEFTRILKHGAKDKDD

binding: binds
B3: Myl12b (protein, UniProt Q3THE2 1-172)
chain: B2 chain with R5K, M61L, E68A, I115T

binding: binds
B4: Myo1b (protein, UniProt P46735 1-1107)
chain: MAKMEVKSSLLDNMIGVGDMVLLEPLNEETFIDNLKKRFDHNEIYTYIGSVVISVNPYRSLPIYSPEKVEDYRNRNFYELSPHIFALSDEAYRSLRDQDKDQCILITGESGAGKTEASKLVMSYVAAVCGKGAEVNQVKEQLLQSNPVLEAFGNAKTVRNDNSSRFGKYMDIEFDFKGDPLGGVISNYLLEKSRVVKQPRGERNFHVFYQLLSGASEELLYKLKLERDFSRYNYLSLDSAKVNGVDDAANFRTVRNAMQIVGFLDHEAEAVLEVVAAVLKLGNIEFKPESRVNGLDESKIKDKNELKEICELTSIDQVVLERAFSFRTVEAKQEKVSTTLNVAQAYYARDALAKNLYSRLFSWLVNRINESIKAQTKVRKKVMGVLDIYGFEIFEDNSFEQFIINYCNEKLQQIFIELTLKEEQEEYIREDIEWTHIDYFNNAIICDLIENNTNGILAMLDEECLRPGTVTDETFLEKLNQVCATHQHFESRMSKCSRFLNDTTLPHSCFRIQHYAGKVLYQVEGFVDKNNDLLYRDLSQAMWKAGHSLIKSLFPEGNPAKVNLKRPPTAGSQFKASVATLMRNLQTKNPNYIRCIKPNDKKAAHIFNESLVCHQIRYLGLLENVRVRRAGYAFRQAYEPCLERYKMLCKQTWPHWKGPARSGVEVLFNELEIPVEEHSFGRSKIFIRNPRTLFQLEDLRKQRLEDLATLIQKIYRGWKCRTHFLLMKRSQVVIAAWYRRYAQQKRYQQIKSSALVIQSYIRGWKARKILRELKHQKRCKEAATTIAAYWHGTQARRELKRLKEEARRKHAVAVIWAYWLGLKVRREYRKFFRANAGKKIYEFTLQRIVQKYLLEMKNKMPSLSPIDKNWPSRPYLFLDSTHKELKRIFHLWRCKKYRDQFTDQQKLIYEEKLEASELFKDKKALYPSSVGQPFQGAYLEINKNPKYKKLKDAIEEKIIIAEVVNKINRANGKSTSRIFLLTNNNLLLADQKSGQIKSEVPLVDVTKVSMSSQNDGFFAVHLKEGSEAASKGDFLFSSDHLIEMATKLYRTTLSQTKQKLNIEISDEFLVQFRQDKVCVKFIQGNQKNGSVPTCKRKNNRLLEVAVP

binding: binds
B5: Cdc42ep1 (MSE55) (protein, UniProt Q91W92 1-409)
chain: MPGPQGGTGAPTMSLGKLSPVGWVSSSHGKRRLTADMISPPLGDFRHTMHVGRGGDVFGDTSFLSNHGGRSGNTHRSPRSFLARKLQQVRRVGVPPRRMASPAAPSPAPPPISPIIKNAISLPQLNQATYDSLVMGKLSFDSTPASSTDGHSGYGLESGFCTISRLPRVEKHSNRDRDRDPDHSQDREQSSFPSEPTPNPELRRSDSLLSFRFDLDLGPSLLSELLGVMSLSEAPAAETPVPTANPPAPAANPAPTAKPPAHAITTLDAVTSLPASAVTSLPAPAAASSPSRGHFPNGVTSVLGPAAEAKPSPVGEGPQVPSNMTFDRHGASWGASRASWGASRASRHYTEMDARRELAGVLPQVHGSWESLNEDWSTPPASVRAPVPTSVQVNAFEFADAEEDDEVKV

binding: binds
B6: Slingshot homology 2 (Ssh2) (protein, UniProt Q5SW75 1-1423)
chain: MALVTVQRSPTPSTTSSPCASEADSGEEECRSQPRSISESFLTVKGAALFLPRGNGSSTPRVSHRRNKHAGDLQQHLQAMFILLRPEDNIRLAVRLESTYQNRTRYMVVVSTNGRQDTEESIVLGMDFSSNDSSTCTMGLVLPLWSDTLIHLDGDGGFSVSTDNRVHIFKPVSVQAMWSALQSLHKACEVARMHNYYPGSLFLTWVSYYESHINSDQSSVNEWNAMQDVQSHRPDSPALFTDIPTERERTERLIKTKLREIMMQKDLENITSKEIRTELEMQMVCNLREFKEFIDNEMIVILGQMDSPTQIFEHVFLGSEWNASNLEDLQNRGVRYILNVTREIDNFFPGVFEYHNIRVYDEEATDLLAYWNDTYKFISKAKKHGSKCLVHCKMGVSRSASTVIAYAMKEYGWNLDRAYDYVKERRTVTKPNPSFMRQLEEYQGILLASKQRHNKLWRSHSDSDLSDHHEPICKPGLELNKKEMTTSADQIAEVKTVENLAAMPTVFMEHVVPQDANQKGLHTKERVICLEFSSQEFRAGQIEDELNLNDINGCSSGCCLSESKLPLDNCHASKALLQPGQAPDIANKFPDLAVEDLETDALKADMNVHLLPMEELTSRLKDLPMSPDLESPSPQASCQAAISDFSTDRIDFFSALEKFVELSQETRSRSFSHSRIEELGGGRSEGCRLSVIEVAASEMAADDQRSSSLSNTPHASEESSVDEDQSKAITELVSPDIIMQSHSENAISVKEIVTEIESISQGVGQVQLKGDILSNPCHTPKKSTIHELPLERVPAPESKPGHWEQDESFCSVQPELARDSGKCAPEEGCLTTHSSTADLEEEEPVEGEHDWGPGMHSGAKWCPGSVRRATLEFEERLRQEQENHGTASAGPTLSNRKNSKNDSSVADLMPKWKSDETTPEHSFFLKEAEPSKGKGKCSGSEAGSLSHCERNPTMPDCELLEHHSLPAPQDCLGSDSRSKKQEGDLKKQRAVVPNQECDTQAILLPLPKKIEIIEYTPTVTSLGHTEPGGEATPSKEGEKQGLRKVKMEQSITMFCALDENLNRTLEPSQVSLHPQVLPLPHSSSECDRPADPNPMLSSPQDKGDCPSTPFKTAAPFVSCSTQGASFSLDYLLPHSVVHLEGCTEQSSATDNELSPEQASWEDSRGHFLSSGSGMAHTSSPLTNEDLSLINKLGDSVGVLQKKLDPSPEACRIPHSSSSENIRDLSHSRGVVKEHAKEIESRVIFQAGFSKTSQMKRSASLAKLGYLDLCKDYLPDRELVSSESPHLKLLQPFLRTDSGMHALMAHEPSESAGAQQNPQPTKYSVEQLKTSECIVQSKPVERPSVQYAKEFGYSQQCLLPKARPELTSSEGGLPLLQTQGLQYTGPSPGLAVAPRQQHGRTHPLRRLKRANDKKRTTNPFYNTM

binding: binds
B7: Wasf1 (protein, UniProt Q8R5H6 1-559)
chain: MPLVKRNIDPRHLCHTALPRGIKNELECVTNISLANIIRQLSSLSKYAEDIFGELFNEAHSFSFRVNSLQERVDRLSVSVTQLDPKEEELSLQDITMRKAFRSSTIQDQQLFDRKTLPIPLQETYDVCEQPPPLNILTPYRDDGKEGLKFYTNPSYFFDLWKEKMLQDTEDKRKEKRKQKQKNLDRPHEPEKVPRAPHDRRREWQKLAQGPELAEDDADLLHKHIEVANGPASHYETRPQTYVDHMDGSYSLSALPFSQMSELLTRAEERVLVRPHEPPPPPPMHGAGDAKPTPTCISSATGLIENRPQSPAAGRTPVFVSPTPPPPPPPLPSALSTSSLRASMTSTPPPPVPPPPPPPATALQAPAVPPPPAPLQIAPGVLHPAPPPIAPPLVQPSPPVARAAPVCETVPVHPLPQGEVQGLPPPPPPPPLPPPGIRPSSPVAVAALAHPPSGLHPAPSTAPGPHAPLMPPSPPSQVLPASEPKRHPSTLPVISDARSVLLEAIRKGIQLRKVEEQREQEAKHERIENDVATILSRRIAVEYSDSEDDSEFDEVDWLE

binding: binds
B8: flightless 1 (Flii) (protein, UniProt Q9JJ28 1-1271)
chain: MEATGVLPFVRGVDLSGNDFKGGYFPENVKAMTSLRWLKLNRTGLCYLPEELAALQKLEHLSVSHNHLTTLHGELSSLPSLRAIVARANSLKNSGVPDDIFKLDDLSVLDLSHNQLTECPRELENAKNMLVLNLSHNGIDSIPNQLFINLTDLLYLDLSENRLESLPPQMRRLVHLQTLVLNGNPLLHAQLRQLPAMMALQTLHLRNTQRTQSNLPTSLEGLSNLSDVDLSCNDLTRVPECLYTLPSLRRLNLSSNQIAELSLCIDQWVHLETLNLSRNQLTSLPSAICKLTKLKKLYLNSNKLDFDGLPSGIGKLTSLEEFMAANNNLELIPESLCRCPKLKKLVLNKNRLVTLPEAIHFLTEIQVLDVRENPSLVMPPKPADRTAEWYNIDFSLQNQLRLAGASPATVAAAAAVGSGSKDPLARKMRLRRRKDSAQDVQAKQVLKGMSDVAQEKNKNQEESIDARAPGGKVRRWDQGLEKPRLDYSEFFTEDVGQLPGLTIWQIENFVPVLVEEAFHGKFYEADCYIVLKTFLDDSGSLNWEIYYWIGGEATLDKKACSAIHAVNLRNYLGAECRTVREEMGDESEEFLQVFDNDISYIEGGTASGFYTVEDTHYVTRMYRVYGKKNIKLEPVPLKGSSLDPRFVFLLDQGLDIYVWRGAQATLSNTTKARLFAEKINKNERKGKAEITLLVQGQEPPGFWDVLGGEPSEIKNHVPDDFWPPQPKLYKVGLGLGYLELPQINYKLSVEHKKRPKVELMPGMRLLQSLLDTRCVYILDCWSDVFIWLGRKSPRLVRAAALKLGQELCGMLHRPRHTVVSRSLEGTEAQVFKAKFKNWDDVLTVDYTRNAEAVLQGQGLSGKVKRDTEKTDQMKADLTALFLPRQPPMPLAEAEQLMEEWNEDLDGMEGFVLEGRKFTRLPEEEFGHFYTQDCYVFLCRYWVPVEYEEEEKTEDKEGKASAEAREGEEAAAEAEEKQPEEDFQCIVYFWQGREASNMGWLTFTFSLQKKFESLFPGKLEVVRMTQQQENPKFLSHFKRKFIIHRGKRKVTQGTLQPTLYQIRTNGSALCTRCIQINTDSSLLNSEFCFILKVPFESEDNQGIVYAWVGRASDPDEAKLAEDILNTMFDASYSKQVINEGEEPENFFWVGIGAQKPYDDDAEYMKHTRLFRCSNEKGYFAVTEKCSDFCQDDLADDDIMLLDNGQEVYMWVGTQTSQVEIKLSLKACQVYIQHTRSKEHERPRRLRLVRKGNEQRAFTRCFHAWSTFRQAPA

binding: binds
B9: Myl6 (protein, UniProt Q60605 1-151)
chain: MCDFTEDQTAEFKEAFQLFDRTGDGKILYSQCGDVMRALGQNPTNAEVLKVLGNPKSDEMNVKVLDFEHFLPMLQTVAKNKDQGTYEDYVEGLRVFDKEGNGTVMGAEIRHVLVTLGEKMTEEEVEMLVAGHEDSNGCINYEAFVRHILSG

binding: binds
B10: tropomodulin 2 (Tmod2) (protein, UniProt Q9JKK7 1-351)
chain: MALPFQKGLEKYKNIDEDELLGKLSEEELKQLENVLDDLDPESATLPAGFRQKDQTQKAATGPFDREHLLMYLEKEALEQKDREDFVPFTGEKKGRVFIPKEKPVETRKEEKVTLDPELEEALASASDTELYDLAAVLGVHNLLNNPKFDEETTNGEGRKGPVRNVVKGEKAKPVFEEPPNPTNVEASLQQMKANDPSLQEVNLNNIKNIPIPTLKEFAKSLETNTHVKKFSLAATRSNDPVALAFAEMLKVNKTLKSLNVESNFITGTGILALVEALRENDTLTEIKIDNQRQQLGTAVEMEIAQMLEENSRILKFGYQFTKQGPRTRVAAAITKNNDLVRKKRVEGDRR
